Experimental data as given in article PMC8626462.

Chains of the proteins cited; added tags and fusions are not shown.
UniProt Q9BQE9: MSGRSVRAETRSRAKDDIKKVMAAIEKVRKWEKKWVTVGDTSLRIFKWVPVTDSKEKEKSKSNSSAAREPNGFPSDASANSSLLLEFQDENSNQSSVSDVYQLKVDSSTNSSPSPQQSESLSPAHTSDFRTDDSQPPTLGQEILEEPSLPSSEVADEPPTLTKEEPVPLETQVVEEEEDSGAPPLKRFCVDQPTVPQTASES
UniProt Q92785: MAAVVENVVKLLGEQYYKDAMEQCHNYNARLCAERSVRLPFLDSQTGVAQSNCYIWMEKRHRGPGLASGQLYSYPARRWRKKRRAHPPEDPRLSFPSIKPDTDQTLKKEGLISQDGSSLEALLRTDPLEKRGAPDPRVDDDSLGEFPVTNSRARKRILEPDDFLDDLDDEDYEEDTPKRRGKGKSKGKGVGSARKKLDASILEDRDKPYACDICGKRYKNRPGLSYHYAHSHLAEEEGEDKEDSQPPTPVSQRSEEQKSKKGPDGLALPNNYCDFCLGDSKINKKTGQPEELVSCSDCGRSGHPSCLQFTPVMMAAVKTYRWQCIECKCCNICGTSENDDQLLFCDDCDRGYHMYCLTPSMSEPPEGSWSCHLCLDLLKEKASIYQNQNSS
UniProt Q9NZM4: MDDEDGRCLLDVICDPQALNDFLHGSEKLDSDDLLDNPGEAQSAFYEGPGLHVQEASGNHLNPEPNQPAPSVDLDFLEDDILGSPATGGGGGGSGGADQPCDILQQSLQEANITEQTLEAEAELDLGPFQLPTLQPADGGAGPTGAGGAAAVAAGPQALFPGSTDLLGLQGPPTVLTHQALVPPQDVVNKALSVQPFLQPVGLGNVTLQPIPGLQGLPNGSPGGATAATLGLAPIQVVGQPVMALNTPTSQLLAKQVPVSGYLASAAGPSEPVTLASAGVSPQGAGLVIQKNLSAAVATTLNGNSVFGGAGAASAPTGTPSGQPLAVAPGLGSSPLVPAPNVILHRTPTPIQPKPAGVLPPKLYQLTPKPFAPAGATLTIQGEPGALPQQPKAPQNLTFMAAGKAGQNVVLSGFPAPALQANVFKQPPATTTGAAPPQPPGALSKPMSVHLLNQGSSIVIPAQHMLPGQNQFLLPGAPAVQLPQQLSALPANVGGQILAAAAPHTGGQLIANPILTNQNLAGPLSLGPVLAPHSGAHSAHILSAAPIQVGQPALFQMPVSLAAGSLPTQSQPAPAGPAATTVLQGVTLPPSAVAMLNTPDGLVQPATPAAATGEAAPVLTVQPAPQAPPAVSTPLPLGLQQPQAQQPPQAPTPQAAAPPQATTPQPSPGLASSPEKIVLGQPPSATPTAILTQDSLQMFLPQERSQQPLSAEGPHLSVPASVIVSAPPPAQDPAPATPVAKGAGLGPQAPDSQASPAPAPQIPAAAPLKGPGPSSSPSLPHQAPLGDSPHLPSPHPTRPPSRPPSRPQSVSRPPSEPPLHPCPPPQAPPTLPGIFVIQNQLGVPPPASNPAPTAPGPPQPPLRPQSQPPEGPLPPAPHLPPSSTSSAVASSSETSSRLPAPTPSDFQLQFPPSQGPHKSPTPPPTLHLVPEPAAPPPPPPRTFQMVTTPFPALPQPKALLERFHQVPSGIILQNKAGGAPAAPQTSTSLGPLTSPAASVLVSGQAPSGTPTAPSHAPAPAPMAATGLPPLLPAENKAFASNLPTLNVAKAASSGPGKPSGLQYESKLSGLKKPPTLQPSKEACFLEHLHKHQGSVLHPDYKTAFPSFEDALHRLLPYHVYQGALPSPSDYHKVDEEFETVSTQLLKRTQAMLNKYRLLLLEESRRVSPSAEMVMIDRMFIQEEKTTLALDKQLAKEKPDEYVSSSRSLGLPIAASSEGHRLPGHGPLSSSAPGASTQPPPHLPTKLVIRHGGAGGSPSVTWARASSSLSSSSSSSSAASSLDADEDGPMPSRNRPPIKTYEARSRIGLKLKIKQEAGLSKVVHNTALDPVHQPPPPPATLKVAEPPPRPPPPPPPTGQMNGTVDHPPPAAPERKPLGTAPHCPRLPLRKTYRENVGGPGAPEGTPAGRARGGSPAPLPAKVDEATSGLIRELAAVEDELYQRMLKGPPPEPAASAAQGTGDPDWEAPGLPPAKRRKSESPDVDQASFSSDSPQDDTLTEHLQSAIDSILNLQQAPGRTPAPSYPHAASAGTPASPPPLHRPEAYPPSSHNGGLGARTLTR
UniProt Q8TAQ2: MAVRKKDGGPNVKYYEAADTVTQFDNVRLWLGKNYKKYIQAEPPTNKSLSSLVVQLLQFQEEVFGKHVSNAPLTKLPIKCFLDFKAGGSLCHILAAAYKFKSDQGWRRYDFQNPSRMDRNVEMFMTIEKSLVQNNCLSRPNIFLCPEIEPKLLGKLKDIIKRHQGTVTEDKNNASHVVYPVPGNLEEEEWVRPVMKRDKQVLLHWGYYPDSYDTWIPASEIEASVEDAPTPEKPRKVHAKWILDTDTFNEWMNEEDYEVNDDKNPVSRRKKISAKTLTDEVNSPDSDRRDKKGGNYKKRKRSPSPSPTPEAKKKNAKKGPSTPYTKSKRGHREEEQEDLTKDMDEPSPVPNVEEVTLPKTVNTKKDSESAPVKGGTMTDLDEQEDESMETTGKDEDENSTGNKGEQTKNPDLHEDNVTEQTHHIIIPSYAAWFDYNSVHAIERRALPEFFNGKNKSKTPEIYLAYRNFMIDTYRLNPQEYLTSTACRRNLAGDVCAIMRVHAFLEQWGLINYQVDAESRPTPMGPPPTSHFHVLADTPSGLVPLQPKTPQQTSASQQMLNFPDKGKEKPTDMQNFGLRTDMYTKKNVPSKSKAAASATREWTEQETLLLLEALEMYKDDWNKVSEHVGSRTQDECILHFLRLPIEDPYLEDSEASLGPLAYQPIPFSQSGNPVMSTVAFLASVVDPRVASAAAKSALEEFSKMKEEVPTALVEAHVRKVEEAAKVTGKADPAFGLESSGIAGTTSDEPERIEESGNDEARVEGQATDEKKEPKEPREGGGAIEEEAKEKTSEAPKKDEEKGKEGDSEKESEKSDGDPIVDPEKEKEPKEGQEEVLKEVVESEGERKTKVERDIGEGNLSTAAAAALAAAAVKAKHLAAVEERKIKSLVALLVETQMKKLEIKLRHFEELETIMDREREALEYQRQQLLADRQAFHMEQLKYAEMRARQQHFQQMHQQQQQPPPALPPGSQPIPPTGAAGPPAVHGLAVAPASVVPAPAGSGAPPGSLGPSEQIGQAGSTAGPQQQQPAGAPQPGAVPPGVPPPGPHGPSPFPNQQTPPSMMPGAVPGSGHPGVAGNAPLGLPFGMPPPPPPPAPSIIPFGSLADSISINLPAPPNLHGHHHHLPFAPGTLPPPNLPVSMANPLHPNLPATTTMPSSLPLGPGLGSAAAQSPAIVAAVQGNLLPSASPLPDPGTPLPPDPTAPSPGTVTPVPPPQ
UniProt Q92925: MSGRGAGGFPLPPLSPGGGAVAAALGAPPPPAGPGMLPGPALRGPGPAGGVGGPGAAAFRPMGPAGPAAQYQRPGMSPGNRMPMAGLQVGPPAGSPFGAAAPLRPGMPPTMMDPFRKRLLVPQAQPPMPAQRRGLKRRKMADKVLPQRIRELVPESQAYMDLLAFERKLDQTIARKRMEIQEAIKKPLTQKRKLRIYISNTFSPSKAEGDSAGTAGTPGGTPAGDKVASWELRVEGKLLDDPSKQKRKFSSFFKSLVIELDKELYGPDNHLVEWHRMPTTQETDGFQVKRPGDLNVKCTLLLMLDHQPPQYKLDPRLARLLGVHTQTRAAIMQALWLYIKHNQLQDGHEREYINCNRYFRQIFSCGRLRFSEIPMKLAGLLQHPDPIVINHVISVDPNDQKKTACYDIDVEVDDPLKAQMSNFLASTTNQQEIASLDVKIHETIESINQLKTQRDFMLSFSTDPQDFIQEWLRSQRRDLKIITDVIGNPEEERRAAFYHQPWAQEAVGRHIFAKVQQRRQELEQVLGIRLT
UniProt O75177: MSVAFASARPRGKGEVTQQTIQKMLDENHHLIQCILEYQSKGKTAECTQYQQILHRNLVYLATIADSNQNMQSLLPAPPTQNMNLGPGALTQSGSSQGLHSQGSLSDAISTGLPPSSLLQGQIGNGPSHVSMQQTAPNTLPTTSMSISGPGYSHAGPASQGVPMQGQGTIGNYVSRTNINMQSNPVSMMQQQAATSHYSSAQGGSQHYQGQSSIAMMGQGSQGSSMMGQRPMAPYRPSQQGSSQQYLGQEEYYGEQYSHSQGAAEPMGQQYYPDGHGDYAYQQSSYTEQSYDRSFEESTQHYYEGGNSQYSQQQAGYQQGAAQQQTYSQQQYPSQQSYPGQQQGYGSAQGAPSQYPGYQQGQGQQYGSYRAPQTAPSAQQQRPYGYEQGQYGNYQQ
UniProt P51531: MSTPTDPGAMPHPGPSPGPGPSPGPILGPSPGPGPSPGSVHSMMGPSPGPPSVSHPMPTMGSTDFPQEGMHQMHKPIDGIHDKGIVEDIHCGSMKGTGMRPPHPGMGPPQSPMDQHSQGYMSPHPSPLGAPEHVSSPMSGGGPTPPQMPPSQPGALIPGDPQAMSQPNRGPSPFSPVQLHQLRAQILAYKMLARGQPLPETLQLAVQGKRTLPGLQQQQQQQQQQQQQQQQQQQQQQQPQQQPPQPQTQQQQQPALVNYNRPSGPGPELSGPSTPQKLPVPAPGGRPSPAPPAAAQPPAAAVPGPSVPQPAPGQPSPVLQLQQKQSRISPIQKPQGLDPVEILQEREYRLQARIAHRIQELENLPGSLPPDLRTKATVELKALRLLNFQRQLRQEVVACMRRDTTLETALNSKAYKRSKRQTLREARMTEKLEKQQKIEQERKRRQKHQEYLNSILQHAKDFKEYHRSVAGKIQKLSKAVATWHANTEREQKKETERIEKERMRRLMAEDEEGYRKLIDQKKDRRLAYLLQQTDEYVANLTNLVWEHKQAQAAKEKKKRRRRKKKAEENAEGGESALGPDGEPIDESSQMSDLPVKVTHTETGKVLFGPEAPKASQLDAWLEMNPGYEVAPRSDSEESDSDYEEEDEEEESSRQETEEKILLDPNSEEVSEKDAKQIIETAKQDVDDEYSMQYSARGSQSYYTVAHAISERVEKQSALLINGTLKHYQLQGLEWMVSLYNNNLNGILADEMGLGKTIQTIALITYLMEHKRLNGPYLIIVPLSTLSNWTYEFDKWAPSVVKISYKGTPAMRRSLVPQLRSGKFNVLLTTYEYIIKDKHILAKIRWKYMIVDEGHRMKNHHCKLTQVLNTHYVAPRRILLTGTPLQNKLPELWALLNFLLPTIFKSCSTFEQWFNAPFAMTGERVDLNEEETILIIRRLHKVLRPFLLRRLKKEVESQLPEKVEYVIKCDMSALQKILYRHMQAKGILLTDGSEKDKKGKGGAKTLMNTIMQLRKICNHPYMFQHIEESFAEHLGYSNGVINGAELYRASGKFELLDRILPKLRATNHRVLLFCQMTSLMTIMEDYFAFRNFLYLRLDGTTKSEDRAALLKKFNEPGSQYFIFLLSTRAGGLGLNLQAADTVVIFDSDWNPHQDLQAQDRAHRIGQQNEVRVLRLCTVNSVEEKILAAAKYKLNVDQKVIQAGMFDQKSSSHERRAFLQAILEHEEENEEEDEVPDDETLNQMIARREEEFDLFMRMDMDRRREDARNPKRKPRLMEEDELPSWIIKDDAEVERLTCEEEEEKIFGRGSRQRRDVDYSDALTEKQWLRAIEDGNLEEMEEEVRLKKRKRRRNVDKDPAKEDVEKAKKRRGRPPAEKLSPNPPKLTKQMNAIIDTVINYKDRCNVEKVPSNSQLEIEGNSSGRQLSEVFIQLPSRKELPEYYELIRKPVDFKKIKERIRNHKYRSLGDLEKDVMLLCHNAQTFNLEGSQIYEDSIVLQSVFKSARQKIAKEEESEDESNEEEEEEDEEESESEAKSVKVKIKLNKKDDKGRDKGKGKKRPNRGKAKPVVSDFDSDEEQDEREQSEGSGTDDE
UniProt Q9NPI1: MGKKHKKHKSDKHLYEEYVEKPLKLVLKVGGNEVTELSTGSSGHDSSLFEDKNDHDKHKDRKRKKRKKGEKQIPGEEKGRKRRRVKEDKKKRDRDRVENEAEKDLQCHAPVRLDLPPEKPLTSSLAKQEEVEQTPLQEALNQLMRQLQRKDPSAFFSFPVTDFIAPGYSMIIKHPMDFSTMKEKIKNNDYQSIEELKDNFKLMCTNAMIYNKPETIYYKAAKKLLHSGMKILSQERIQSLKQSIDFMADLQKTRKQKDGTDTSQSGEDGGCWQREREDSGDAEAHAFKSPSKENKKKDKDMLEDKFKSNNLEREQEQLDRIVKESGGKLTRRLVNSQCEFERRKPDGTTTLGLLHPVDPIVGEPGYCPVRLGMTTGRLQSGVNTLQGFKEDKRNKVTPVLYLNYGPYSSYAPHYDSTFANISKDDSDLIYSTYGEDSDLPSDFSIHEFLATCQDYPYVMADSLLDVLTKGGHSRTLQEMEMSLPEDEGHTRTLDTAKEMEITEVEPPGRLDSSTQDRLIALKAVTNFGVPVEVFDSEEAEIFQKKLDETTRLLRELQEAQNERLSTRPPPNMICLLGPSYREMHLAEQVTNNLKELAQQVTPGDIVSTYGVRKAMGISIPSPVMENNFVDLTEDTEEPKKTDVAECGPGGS

Target: BRG1 (encoded by SMARCA4) (human (endogenous in HEK293T, RH4, RH30)) (UniProt P51532)
Assay: affinity purification with mass spectrometry; SEC-IP-LCMS: 1-2 megadalton SEC fractions (16-18) of ammonium sulfate precipitated nuclear extracts of RH30 and RH4 cells, diluted 1:1 in SEC-IP buffer; 3 µg BRG1, PBRM1 (results also: BRM) or non-specific IgG antibody, ~16 h 4 °C; Protein A Dynabeads 4 h; on-bead trypsin digestion, LCMS

binding, binds:
BCL7A (from UniProt Q4VC05 1-210)
BCL7B (from UniProt Q9BQE9 1-202)
BCL7C (from UniProt Q8WUZ0 1-217)
BRD9 (from UniProt Q9H8M2 1-597)
DPF2 (from UniProt Q92785 1-391)
GLTSCR1 (from UniProt Q9NZM4 1-1560)
SMARCC2 (from UniProt Q8TAQ2 1-1214)
SMARCD2 (from UniProt Q92925 1-531)
SMARCD3 (from UniProt Q6STE5 1-483)
SS18L1 (from UniProt O75177 1-396)

Target: BRM (encoded by SMARCA2) (human (endogenous in HEK293T, RH4)) (UniProt P51531)
Assay: as above

binding, binds:
PBRM1 (from UniProt Q86U86 1-1689)
SMARCD2 (from UniProt Q92925 1-531)
SMARCE1 (from UniProt Q969G3 1-411)

Target: PBRM1 (human (endogenous in HEK293T, RH4, RH30)) (UniProt Q86U86)
Assay: as above

binding, binds:
BRD7 (from UniProt Q9NPI1 1-651)

These are yes or no findings as the source states them, for the method shown. Binding seen in cells or lysates may run through a third protein. A yes stands for co-enrichment or nearness to the bait. Other partners may have been found.
